In patent US11007206B2, “Cyclic boronic acid ester derivatives and therapeutic uses thereof” (Melinta Subsidiary Corp., priority 2012, dated 2021):
Some results were stated once for a whole list of compounds, not compound by compound.

Tested on: multi-drug resistant strains of Enterobacteriaceae, including those producing serine carbapenemases
Test: Checkerboard MIC of Biapenem alone or in combination with Compound I at fixed concentrations (Example 4)
Type: cell-based
Conditions: multi-drug resistant isolate panel of Enterobacteriaceae
Procedure: The evaluation of Compound I in combination with the carbapenem antibiotic Biapenem against multi-drug resistant strains of Enterobacteriaceae, including those producing serine carbapenemases were also conducted. Antibiotic potentiation activity of Compound I was studied in checkerboard MIC experiments and time-kill assays. The MICs of Biapenem were […]) against characterized and engineered isolates producing various beta-lactamases, as well as in geographically diverse panels of multi-drug resistant strains of Enterobacteriaceae (including strains that express the most relevant beta-lactamases).

## C[C@H]1[C@H](NC(=O)/C(=N\OC(C)(C)C(=O)O)c2csc(N)n2)C(=O)N1S(=O)(=O)O [aztreonam]
  MIC90: > 32
